Data on 61 molecules can be found in PubChem BioAssay AID493014 (National Center for Advancing Translational Sciences (NCATS), 2011).

Some of the results follow. The main result of the screen is listed elsewhere. These columns were measured beside it and carry no call. Compounds called inactive in the main read-out are mostly missing here. Words in brackets tell the shape of the fitted curve; partial curves, single points and poor fits give uncertain potencies.

The test can be described thus: qHTS Assay to Find Inhibitors of Chronic Active B-Cell Receptor Signaling. To be noted: ABC-DLBCL IkBa-CBG/CBR reporter, luminescence ratio (green luciferase fused to IkBa over red control in TMD8 lymphoma cells), 4 h. An outline of the steps:
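Concentration-response series (up to 46 uM) were applied to TMD8 dual-reporter cells for 4 h at 37C with doxycycline. Green/red ratio, after filter-overlap correction, defined %Activity; red signal alone was normalised to basal cells and zero luminescence.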
A general note: In qHTS, concentration-response curves come from the screen itself.

[1] abbreviates: measured here: CBR red luminescence, cell number.
Where [2] appears, read: measured here: IkBa-CBG green luminescence.

For the molecule `COc1ccccc1C(=O)N(Cc1ccccc1)c1ccc(C)cc1`, under setting [1], the concentration at half-maximal activity (AC50) was 35.5 µM [falling, single point]. Turning to `NC(=O)C1CCN(C(=O)C(=O)c2cn(CC(=O)N3CCCCCC3)c3ccccc23)CC1`, the half-maximal activity concentration (AC50) under setting [1] was 2.51 µM [falling, partial curve, poor fit]. The same measure, in the same setting: the value for `Cn1nccc1C(=O)N1CCc2c([nH]c3ccccc23)C1c1ccc(F)cc1` (centres undefined) was 22.4 µM [falling, single point]. Regarding `COc1ccc(N2CCN(C(C)C(=O)Nc3nnc(C)s3)CC2)cc1` (centres undefined), the AC50 under setting [1] is 0.0891 µM [rising, full curve, poor fit]. For `Clc1ccc(CO/N=C2\CCCc3nonc32)cc1`, the concentration at half-maximal activity (AC50) under setting [1] is 11.6 µM [rising, partial curve].

Turning to `O=C(O)c1ccc(C(=O)c2ccc3c(c2)C(=O)N(CCO)C3=O)cc1`, the AC50 is 6.31 µM [falling, partial curve, poor fit] under setting [1] and 3.55 µM [rising, single point] under setting [2].

For the molecule `CS(=O)(=O)NCCNc1ccc(Cl)cc1[N+](=O)[O-]`, under setting [1], the AC50 was 14.1 µM [rising, partial curve, poor fit]. For the molecule `CC(=O)Nc1ccc(C(=O)COC(=O)C2CC2C)c(F)c1` (centres undefined), the concentration at half-maximal activity (AC50) under setting [1] was 16.4 µM [rising, partial curve]. On to `CCOC(=O)c1c(S(=O)(=O)Nc2cccc(Cl)c2)c(C)n(C)c1C`, for which, under setting [1], the AC50 is 31.6 µM [rising, single point]. For `CC(=C/c1ccccc1)/C=N/n1c(-c2ccco2)n[nH]c1=S`, under setting [1], the concentration at half-maximal activity (AC50) is 10 µM [falling, partial curve]. Turning to `CCCN1C2CCCC1CC(NC(=S)Nc1ccc(OC)cc1)C2` (centres undefined), under setting [1], the half-maximal activity concentration (AC50) was 14.1 µM [rising, single point]. Regarding `Cc1nc(N/N=C/c2ccc(Br)cc2)cc(N2CCOCC2)n1`, the half-maximal activity concentration (AC50) under setting [1] is 12.6 µM [rising, partial curve, poor fit]. Regarding `COc1ccc2nc3c(cc2c1)c(NC(=O)c1cccs1)nn3CC(C)C`, the AC50 under setting [1] was 8.91 µM [falling, partial curve, poor fit].

Regarding `NC(=O)c1ccc(NC(=O)CN2CCN(S(=O)(=O)c3ccc4c(c3)OCCO4)CC2)cc1`, under setting [1], the AC50 was 29.1 µM [rising, single point]. On the same count and under the same terms, the value for `CCOC(=O)[C@@H]1[C@H]2COc3cc(OC)ccc3[C@H]2N2C(=O)N(c3cccc(F)c3)C(=O)[C@@]12C` was 11.6 µM [rising, partial curve, poor fit]. As for `Cc1ccccc1OCC(=O)Nc1cnn(CCCC(=O)O)c1`, the concentration at half-maximal activity (AC50) by setting is: under setting [1], 5.62 µM [rising, full curve]; under setting [2], 10 µM [falling, partial curve, poor fit]. Turning to `CSc1ccccc1OCc1cc(C(=O)NC(C)c2cnn(C)c2)no1` (centres undefined), the AC50 under setting [1] was 25.1 µM [falling, single point]. Take `COc1ccc(-c2sc3cc4c(cc3c2C#CC2(N)CCCCC2)OCO4)cc1`: under setting [1], the AC50 is 23.1 µM [rising, single point].

Consider `COc1cc([N+](=O)[O-])cc(/C=N/NC(=O)C(C)Nc2cccc3ccccc23)c1O` (centres undefined), for which the half-maximal activity concentration (AC50) is 18.4 µM [falling, single point] under setting [1] and 18.4 µM [rising, partial curve, poor fit] under setting [2].

Take `Cc1nc(N2CCOCC2)c2oc3ccccc3c2n1`: the concentration at half-maximal activity (AC50) under setting [1] was 3.98 µM [falling, full curve, poor fit]. For the molecule `CCCC(C)NC(=O)c1ccc(OCc2ccc(Cl)cc2)c(OC)c1` (centres undefined), the AC50 under setting [1] is 18.4 µM [rising, partial curve, poor fit]. With `COc1cccc(NS(=O)(=O)c2ccc3[nH]cc(C(=O)NCCCOC(C)C)c(=O)c3c2)c1`, the AC50 under setting [1] is 2.51 µM [rising, partial curve, poor fit]. Take `c1ccc(N/N=C(\Cc2nc3ccccc3[nH]2)c2ccccc2)cc1`: the AC50 under setting [1] was 4.61 µM [rising, partial curve, poor fit]. On the same count and under the same terms, the value for `COc1ccc(S(N)(=O)=O)cc1C(=O)OCC1CCCCC1` was 11.2 µM [rising, partial curve, poor fit]; that for `NC(=O)c1cc(Cl)cn(-c2ccccc2)c1=O` was 18.4 µM [rising, single point]; that for `O=C1N(Cc2cccc(Cl)c2)C[C@@H]2C[C@@H](c3cccc4cccnc34)N3CCC[C@@]123` was 1.12 µM [falling, partial curve, poor fit]. Same read-out and setting: then `Cc1nc(C(=O)NC2CC2)sc1C1(C)CC(c2cccc([N+](=O)[O-])c2)=NO1` (centres undefined), with 3.16 µM [rising, full curve, poor fit]; and `CCN(CC(=O)Nc1c(F)cccc1F)C(=O)CCc1ccc(OC)cc1`, with 20 µM [falling, partial curve, poor fit]. Same read-out and setting: then `COc1cc(C)ccc1OCCOc1c(Cl)cc(Cl)cc1Cl`, with 14.1 µM [rising, partial curve, poor fit]; and `Cc1ccc(C(=O)C2CCN(C(=S)NCC3CCCO3)CC2)cc1` (centres undefined), with 11.2 µM [rising, partial curve, poor fit]. As to `O=[N+]([O-])c1ccc(O)c(/C=N/Nc2ncnc3c2cnn3-c2ccccc2)c1`, under setting [1], the half-maximal activity concentration (AC50) was 0.398 µM [falling, full curve, poor fit]. Consider `O=C(Nc1ccc(Nc2ccccc2)cc1)c1ccccc1F`, for which the concentration at half-maximal activity (AC50) under setting [1] is 17.8 µM [falling, single point]. In the case of `COC(=O)CN1C(=O)N/C(=C/c2cc3c(cc2OC)OCO3)C1=O`, the concentration at half-maximal activity (AC50) under setting [1] is 0.562 µM [falling, full curve, poor fit]. For `CSCCNC(=O)c1ccc(OC2CCN(S(=O)(=O)N(C)C)CC2)cc1`, the AC50 under setting [1] is 3.98 µM [rising, full curve, poor fit]. On to `Cc1nnc(NC(=O)c2oc3ccccc3c2C)s1`, for which the AC50 under setting [1] is 0.0891 µM [rising, full curve, poor fit]. Same read-out and setting: then `Cc1ccc(NC(=O)c2ccc(N/N=C/c3cccc(O)c3)c([N+](=O)[O-])c2)cc1`, with 0.224 µM [falling, full curve]. Still for that read-out and setting: the value for `Cc1cc(C(=O)N/N=C/c2ccc(O)c([N+](=O)[O-])c2)c(C)n1-c1ccc(F)cc1` was 7.31 µM [falling, partial curve, poor fit]; that for `CCOC(=O)CCC(=O)Nc1ncnc2c1C(c1ccccc1)c1c(ccc3ccccc13)O2` (centres undefined) was 29.1 µM [falling, single point]. As for `Cn1cc([N+](=O)[O-])c(C(=O)Nc2nc(-c3ccc(Cl)cc3)cs2)n1`, the half-maximal activity concentration (AC50) under setting [1] was 3.26 µM [falling, partial curve].

For `CCCNc1ncnc2c1cnn2-c1ccc(OC)cc1`, the AC50 under setting [1] is 11.2 µM [falling, single point]. Still for that read-out and setting: the value for `CCc1c(C#N)c(SCCC(=O)Nc2ccc(OC)cc2)nc2c1C(=O)CC(C)(C)C2` was 20.6 µM [falling, partial curve, poor fit]. The same measure, in the same setting: then `CC(=O)c1sc(NC(=O)CCS(=O)(=O)c2ccc(Cl)cc2)nc1C`, with 2.31 µM [falling, full curve, poor fit]; and `COc1ccccc1CNC(=O)C(=O)NCC(c1cccs1)S(=O)(=O)c1ccc(F)cc1` (centres undefined), with 10 µM [falling, partial curve]. On to `O=C(NCCc1ccccc1)C(=O)NCC1OCCN1S(=O)(=O)c1ccccc1` (centres undefined), for which the AC50 under setting [1] was 1.41 µM [rising, partial curve, poor fit]. As to `COc1cc(CNCc2ccccn2)ccc1OCc1c(Cl)cccc1Cl`, under setting [1], the AC50 was 14.1 µM [falling, partial curve]. Still for that read-out and setting: then `CCCCCCOc1ccc(OC(=O)c2cccnc2)cc1`, with 17.8 µM [rising, single point]; and `O=C(N=C1c2ccccc2CN1c1ccccc1)c1cccc([N+](=O)[O-])c1`, with 3.66 µM [rising, full curve, poor fit].

With `FC(F)(F)c1ccc(-c2csc(-c3ccno3)n2)cc1`, the AC50 under setting [1] is 17.8 µM [rising, partial curve, poor fit]. On to `Cc1ccc(NC(=S)N2CCC(N(C)CC3CCCO3)CC2)c(C)c1` (centres undefined), for which, under setting [1], the AC50 is 6.51 µM [falling, single point]. Still for that read-out and setting: then `COc1ccc2[nH]c(=O)c(CN(C(=O)c3cccnc3)c3ccccc3)cc2c1`, with 29.1 µM [falling, single point]; and `COC(=O)c1nnn(CC(=O)Nc2cccc(Cl)c2C)c1C(=O)OC`, with 2.06 µM [falling, single point]; and `CCOC(=O)c1c(-c2ccccc2)[nH]c2ccc(O)cc12`, with 29.1 µM [falling, single point]. Consider `O=C1NC(c2ccc(-c3ccccc3[N+](=O)[O-])o2)C(C(=O)c2ccc(F)cc2)C(O)(C(F)(F)F)N1` (centres undefined), for which the AC50 under setting [1] was 16.4 µM [falling, partial curve]. Still for that read-out and setting: the value for `O=C(CCl)Nc1ccc(S(=O)(=O)Nc2nccs2)cc1` was 35.5 µM [falling, partial curve, poor fit]. The same measure, in the same setting: the value for `Brc1ccc(-c2nc(-c3ccccc3)no2)o1` was 2.91 µM [rising, single point]; that for `Oc1ccc(Cl)cc1CNCc1ccc(Cl)nc1` was 29.1 µM [rising, single point]; that for `CC(NS(=O)(=O)c1ccc(OCC(=O)Nc2cccc([N+](=O)[O-])c2)cc1)c1ccccc1` (centres undefined) was 8.2 µM [falling, partial curve, poor fit]. Still for that read-out and setting: the value for `Cc1ccc(SCC(=O)Nc2cc(C)on2)cc1` was 6.51 µM [rising, single point]; that for `Cc1cc(=O)c2cc(C(=O)c3ccccc3)ccc2[nH]1` was 35.5 µM [falling, single point]. Consider `O=C(Nc1cc(C(F)(F)F)ccc1Cl)C(Sc1nnc(-c2cccs2)o1)c1ccccc1` (centres undefined), for which the concentration at half-maximal activity (AC50) under setting [2] is 23.1 µM [rising, partial curve, poor fit]. As to `O=C(Nc1ccc(Nc2ccncc2)cc1)c1ccc([N+](=O)[O-])cc1`, the AC50 under setting [1] was 7.08 µM [falling, partial curve, poor fit].

For orientation: AC50 means the midpoint of the concentration-response curve, whichever way the signal moves.
